Reference: PMC11335240
No constants are given. Whether binding was seen depends on the method and setting. Binding seen in cells or lysates may run through a third protein. Some entries that bind do so weakly or less than the wild type.

Molecular target: T1, ZMYND12 (Zinc Finger, MYND domain containing 12) (mouse (endogenous in testis)) (UniProt A2BGJ5)
T1 sequence: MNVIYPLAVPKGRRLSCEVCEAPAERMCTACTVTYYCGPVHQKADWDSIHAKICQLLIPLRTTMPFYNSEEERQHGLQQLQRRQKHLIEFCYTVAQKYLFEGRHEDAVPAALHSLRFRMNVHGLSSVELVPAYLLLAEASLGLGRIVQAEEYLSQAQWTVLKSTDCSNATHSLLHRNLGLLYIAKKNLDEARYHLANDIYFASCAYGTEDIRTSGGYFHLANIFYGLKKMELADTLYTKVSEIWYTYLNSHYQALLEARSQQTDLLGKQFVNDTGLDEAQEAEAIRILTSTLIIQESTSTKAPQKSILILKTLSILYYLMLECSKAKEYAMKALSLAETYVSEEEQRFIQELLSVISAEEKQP
Assay: co-IP; testicular proteins extracted in RIPA buffer, precleared, incubated overnight at 4 °C with antibody, protein A/G magnetic beads, 5 washes with RIPA buffer, western blot; rabbit IgG as negative control

binding: binds
B1: TTC29 (protein, UniProt Q80VM3 1-471)
chain: MATFPPLPMTHTRLAILARQKLPCSSKKIPRAQLIKEKEDIDYYLEQNFKGLSKEEVAAHRNSYKKSICVDMLRDGFHKSFTELFALMEQWDKLPEAAKAQSLFWQQRPLEDQPDKLDNFYHYLTRAEAAERKGYYEEVYNNLYALACYFDNSEDKWVRNHFYERCFNIAQLIKADGGKKEAEAESHMGLLFEEEGELLKAAEHYEAFHELTHGRLWKDGTGQLLNLVACESLVRTYRLLSDRMLENKDYKQAIKILIKASEIAREGNDRSMEGEASYYLGLAHLASGEYETALTVLNRYSEISTSLDDDHGLGRAYEAIAKALQSQGETTEAINYLEKFVTIARNNLQSLDMIRACTMLGDIYNEKGQYSKASEYFQQAFSTAMELMKTALMDETKVHYGIARAHQMMLAMKGYIESADSNGLNCLLSWKETRTQIEYDPILGESRRATEDNIYQLPDAEEETRRSPENQ
